From PubChem BioAssay AID651660 (Broad Institute, 2012) come the findings set out here.

Chains of the proteins cited; added tags and fusions are not shown. Lines headed by an entry give the natural chain unless they say otherwise; changes in a name come on top.
UniProt P43351: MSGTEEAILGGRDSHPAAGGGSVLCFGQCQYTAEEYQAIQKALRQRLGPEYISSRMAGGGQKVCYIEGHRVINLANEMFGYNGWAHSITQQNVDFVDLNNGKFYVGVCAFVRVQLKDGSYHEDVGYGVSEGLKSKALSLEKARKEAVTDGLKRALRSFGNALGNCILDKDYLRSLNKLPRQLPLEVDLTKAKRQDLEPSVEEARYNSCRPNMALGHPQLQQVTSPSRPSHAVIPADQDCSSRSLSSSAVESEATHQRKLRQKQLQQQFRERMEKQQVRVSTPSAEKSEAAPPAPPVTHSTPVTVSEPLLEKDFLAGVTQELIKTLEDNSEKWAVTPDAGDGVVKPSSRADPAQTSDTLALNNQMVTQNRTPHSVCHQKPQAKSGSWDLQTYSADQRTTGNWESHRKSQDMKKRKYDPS

Screen size: about 1,900 compounds; about 15 (0.8%) were called active.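 Rule for the calls: active = every replicate shows at least 50% inhibition; inconclusive = mean inhibition at least 50% but some replicate below; inactive = the rest.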 This is one part of the list.

This test has as its target DNA repair protein RAD52 homolog (Homo sapiens) (UniProt P43351). Nature of the test: RAD52 ssDNA annealing inhibitors, primary screen, biochemical, FRET, single point (AID 651660).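 Note: 0% = median of neutral control wells and 100% = median of positive control wells.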 The conditions noted are these: Recombinant RAD52 ssDNA annealing, FRET fluorescence, 30 min; at 18.7 µM; hits give high values.
In general, inhibition refers to the relative decrease from the control value, in per cent. As to `Cc1ccc2c(c1)C1(C(=O)N2)N2CCCC2C(C(=O)c2ccc3ccccc3c2)C12C(=O)Nc1ccccc12` (stereo unspecified), the inhibition was inactive: 8.82%.

For `C[C@]12CC[C@@H]3c4ccc(O)cc4CC[C@H]3[C@@H]1C[C@@H](O)[C@@H]2O[C@@H]1O[C@H](C(=O)O)[C@@H](O)[C@H](O)[C@H]1O`, the inhibition was inactive: 5.26%.

Regarding `CCC(=O)Nc1ccc(C(=O)N2CCN(C(=O)c3ccco3)CC2)cc1`, the inhibition is inactive: -9.41%.

Consider `Cc1ccc2c(c1)C1OCCC1C1N2C(=O)C2C(C(=O)O)C3C=CC21O3` (stereo unspecified), for which the inhibition was inactive: -2.31%.

Turning to `COC(=O)c1ccc(OCCCCN2CC(C)OC(C)C2)cc1` (stereo unspecified), the inhibition is inactive: -1.97%.

For the molecule `O=C(Nc1ccc(F)c([N+](=O)[O-])c1)c1ccc2c(c1)OCCO2`, the inhibition is inactive: -13.5%.

In the case of `CCOC(=O)C1(Cc2cccc(Cl)c2)CCCN(C2CCN(C(C)=O)CC2)C1` (stereo unspecified), the inhibition was inactive: -44.5%.

With `CC(C)NS(=O)(=O)c1ccc(OCC(=O)Nc2cccc(F)c2)cc1`, the inhibition was inactive: 0.0325%.

As to `CC1(C)c2ccccc2N2CC(=O)NC21/C=C/c1ccco1` (stereo unspecified), the inhibition is inactive: -75.3%.

Regarding `COC(=O)c1cc(-c2ccc(C)o2)nc2ccccc12`, the inhibition was inactive: -16.8%.

Turning to `CN(C)CC/C=C1\c2ccccc2COc2ccccc21`, the inhibition is inactive: 4.76%.

For `CC(C)CCc1noc(CN2CCC(CCN3CCCC3=O)CC2)n1`, the inhibition was inactive: -7.02%.

On to `Cc1oc2c(C)c3oc(=O)c4c(c3cc2c1C)CCCC4`, for which the inhibition was inactive: -0.076%.

For `CCCCC(=O)O[C@]1(C(=O)CO)CC[C@H]2[C@@H]3CCC4=CC(=O)CC[C@]4(C)[C@H]3[C@@H](O)C[C@@]21C`, the inhibition was inactive: -7.18%.

On to `CCc1cccc2c3c([nH]c12)C(CC)(CC(=O)O)OCC3` (stereo unspecified), for which the inhibition was inactive: -2.3%.

In the case of `CCCC(=O)Nc1ccccc1NC(C)=O`, the inhibition is inactive: -0.651%.

As to `COc1ccc(OC)c(NC2=C(Cl)C(=O)N(Cc3ccccc3)C2=O)c1`, the inhibition was inactive: -4.08%.

For the molecule `COc1ccc(CNC(=O)c2cc3c(=O)n4ccccc4nc3n(Cc3cccnc3)c2=N)cc1`, the inhibition was inactive: -27.7%.

As to `COc1ccc(CNC(=O)C2CCCN2C)cc1OC` (stereo unspecified), the inhibition is inactive: 0.649%.

With `COc1ccccc1Oc1c(C)oc2c(CN3CCN(CCO)CC3)c(O)ccc2c1=O`, the inhibition is inactive: 1.49%.

`COc1ccccc1N=CC1=C(O)CC(c2ccccc2)CC1=O` (stereo unspecified): the inhibition is inactive: -25.4%.

In the case of `C=C1C2(C(=O)Nc3ccc(SC(F)F)cc3)CCC(C2)C1(C)C` (stereo unspecified), the inhibition is inactive: 12.2%.

In the case of `CC[N+]1(CC)CC2=Cc3ccccc3CC2C1` (stereo unspecified), the inhibition is inactive: -3.96%.

In the case of `COc1ccc2c(CCNC(=O)c3ccc([N+](=O)[O-])cc3)c[nH]c2c1`, the inhibition was inactive: -2.51%.

Consider `Cc1cccc(Oc2coc3cc(OC(=O)c4cncc(Br)c4)ccc3c2=O)c1`, for which the inhibition was inactive: -14.2%.

For the molecule `CCNC(=O)C(Cc1ccccc1)NC(=O)OCc1ccccc1` (stereo unspecified), the inhibition was inactive: -6.26%.

Take `O=C1OC(=O)C2C1[C@@H]1CC[C@H]2O1` (stereo partly specified): the inhibition was inactive: -10.6%.

As to `COc1ccc2c(c1)CC[C@@H]1[C@@H]2CC[C@]2(C)C(=O)CC[C@@H]12`, the inhibition is inactive: 9.56%.

Turning to `OC(CCN1CCCCC1)(c1ccccc1)C1CCCCC1` (stereo unspecified), the inhibition was inactive: 5.63%.

Consider `CCOC(=O)c1cc2c(nc1N)CC(C)(CC)OC2` (stereo unspecified), for which the inhibition was inactive: -11.6%.

Take `O=C(CN1C(=O)C2CCc3[nH]c4ccccc4c3C2C1=O)N1CCCC1` (stereo unspecified): the inhibition is inactive: -14.6%.

Turning to `Nc1cc(-c2ccncc2)c[nH]c1=O`, the inhibition was inactive: -48.5%.

As to `CS(=O)c1ccccc1O` (stereo unspecified), the inhibition is inactive: 5.06%.

`Cc1cccc(C2=N/C(=C\c3cccnc3)C(=O)O2)c1`: the inhibition is inactive: -6.72%.

In the case of `COc1ccc(C2C(C(=O)c3ccco3)=C(O)C(=O)N2CC2CCCO2)cc1` (stereo unspecified), the inhibition is inactive: -24.3%.

In the case of `CCOC(=O)C(=Cc1ccccc1OC)C(=O)OCC`, the inhibition was inactive: 1.51%.

Turning to `COc1cc(C2Nc3ccccc3NC3=C2C(=O)CC(c2ccc(OC)c(OC)c2)C3)ccc1O` (stereo unspecified), the inhibition is inactive: 5.95%.

Regarding `COc1ccc(C(=O)Nc2ccc(OC)c([N+](=O)[O-])c2)cc1Br`, the inhibition is inactive: 5.07%.

In the case of `Cc1ccccc1-c1coc2cc(O)ccc2c1=O`, the inhibition was inactive: -13.2%.

As for `CCC1CCc2c(sc(NC(=O)c3cccnc3)c2C(N)=O)C1` (stereo unspecified), the inhibition was inactive: -5.46%.

In the case of `COc1cc(C(=O)CCN2CCC(c3ccccc3)C2)cc(OC)c1OC` (stereo unspecified), the inhibition was inactive: 1.35%.

As to `Cn1c([N+](=O)[O-])cnc1COC(N)=O`, the inhibition is inactive: -5.31%.

`Fc1ccccc1CNCCC(Cc1ccccc1)c1ccc2c(c1)OCO2` (stereo unspecified): the inhibition was inactive: 27.4%.

Take `Cc1ccc2nc3c(cc(C(=O)NCC4CCCO4)c(=N)n3CCCOC(C)C)c(=O)n2c1` (stereo unspecified): the inhibition was inactive: -9.5%.

For the molecule `Cc1coc2c1c(C)cc1oc(=O)c(Cc3ccccc3)c(C)c12`, the inhibition is inactive: -10.3%.

For `Cc1cc(C)c2c(CCl)cc(=O)oc2c1`, the inhibition was inactive: 3.63%.

`Cc1nnc(SCC(=O)N2CCCC(C(=O)c3ccc(Cl)cc3)C2)o1` (stereo unspecified): the inhibition is inactive: -9.38%.

`CNCCC(Oc1ccc(C(F)(F)F)cc1)c1ccccc1` (stereo unspecified): the inhibition was inactive: 18.8%.

With `Cc1ccc(C(=O)NCCNC(=O)c2ccccc2)cc1`, the inhibition is inactive: -3.73%.

On to `CC(=O)Nc1cc(O)cc(O)c1`, for which the inhibition is inactive: -8.45%.

For the molecule `COC(=O)c1cc(OC)c(OC)c(OC)c1[N+](=O)[O-]`, the inhibition is inactive: -11.8%.

With `COc1ccc2nc(NC(=O)Nc3ccccc3)sc2c1`, the inhibition is inactive: 3.21%.

With `COc1cccc2c(O)cc(=O)n(C)c12`, the inhibition was inactive: 6.83%.

For the molecule `C[C@]12CC[C@@H]3c4cc(O)c(O)cc4CC[C@H]3[C@@H]1CC[C@@H]2O`, the inhibition was inactive: 0.968%.

`CCCCNC(=O)NS(=O)(=O)c1ccc(C)cc1`: the inhibition is inactive: -12.7%.

Regarding `CC(=O)[C@H]1CC[C@H]2[C@@H]3C[C@H](C)C4=CC(=O)CC[C@]4(C)[C@H]3[C@@H](O)C[C@]12C`, the inhibition is inactive: 2.43%.

Turning to `CC(C)CC1c2[nH]c3ccccc3c2CCN1C(=O)CCC(=O)N(C)C` (stereo unspecified), the inhibition was inactive: -3.31%.

Consider `CC(=O)N1c2ccccc2C(C)=CC1(C)C`, for which the inhibition was inactive: -2.15%.

Turning to `CCOCc1cc(C)[nH]c(=O)c1C#N`, the inhibition is inactive: -3.01%.

Consider `O=C1c2ccccc2C2(c3ccccc3)NCCN12` (stereo unspecified), for which the inhibition was inactive: -0.98%.

`O=C(CCC(=O)c1cccs1)c1cccs1`: the inhibition is inactive: 1.81%.
